Experimental data reported in the supplement of paper PMC10849652.
Some of the results follow.

Chains of the proteins cited; added tags and fusions are not shown. Lines headed by an entry give the natural chain unless they say otherwise; changes in a name come on top.
UniProt Q8N960: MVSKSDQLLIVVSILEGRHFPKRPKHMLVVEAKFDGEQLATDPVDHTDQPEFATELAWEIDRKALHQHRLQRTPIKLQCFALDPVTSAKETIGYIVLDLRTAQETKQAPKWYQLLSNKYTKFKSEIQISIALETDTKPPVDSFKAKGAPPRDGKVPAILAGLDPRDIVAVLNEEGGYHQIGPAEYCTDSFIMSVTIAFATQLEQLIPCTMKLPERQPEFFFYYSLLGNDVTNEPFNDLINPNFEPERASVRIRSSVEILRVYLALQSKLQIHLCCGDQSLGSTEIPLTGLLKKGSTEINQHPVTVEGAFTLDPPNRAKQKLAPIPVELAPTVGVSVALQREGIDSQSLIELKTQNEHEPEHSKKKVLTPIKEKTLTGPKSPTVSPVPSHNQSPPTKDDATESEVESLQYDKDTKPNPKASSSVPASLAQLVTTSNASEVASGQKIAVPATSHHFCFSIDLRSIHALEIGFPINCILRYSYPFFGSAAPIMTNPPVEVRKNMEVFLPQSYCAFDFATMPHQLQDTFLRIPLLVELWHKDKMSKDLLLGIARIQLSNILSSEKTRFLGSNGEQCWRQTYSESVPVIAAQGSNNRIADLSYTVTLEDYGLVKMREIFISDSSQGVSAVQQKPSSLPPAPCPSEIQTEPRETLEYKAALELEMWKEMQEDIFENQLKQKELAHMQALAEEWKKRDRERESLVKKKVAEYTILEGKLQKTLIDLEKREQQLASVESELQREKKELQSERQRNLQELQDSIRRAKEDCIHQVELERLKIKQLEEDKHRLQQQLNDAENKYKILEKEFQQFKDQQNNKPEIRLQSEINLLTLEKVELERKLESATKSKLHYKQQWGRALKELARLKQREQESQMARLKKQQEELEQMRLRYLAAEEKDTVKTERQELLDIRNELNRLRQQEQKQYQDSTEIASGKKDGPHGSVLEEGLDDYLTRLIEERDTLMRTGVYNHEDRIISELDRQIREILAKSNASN
UniProt Q9NRR3: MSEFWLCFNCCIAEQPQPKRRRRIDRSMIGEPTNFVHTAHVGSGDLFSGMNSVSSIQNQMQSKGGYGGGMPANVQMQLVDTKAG
UniProt Q9BSY4: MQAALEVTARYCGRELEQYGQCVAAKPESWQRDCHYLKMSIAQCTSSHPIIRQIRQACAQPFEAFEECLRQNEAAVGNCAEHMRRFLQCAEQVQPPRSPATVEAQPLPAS
UniProt Q7L2Z9: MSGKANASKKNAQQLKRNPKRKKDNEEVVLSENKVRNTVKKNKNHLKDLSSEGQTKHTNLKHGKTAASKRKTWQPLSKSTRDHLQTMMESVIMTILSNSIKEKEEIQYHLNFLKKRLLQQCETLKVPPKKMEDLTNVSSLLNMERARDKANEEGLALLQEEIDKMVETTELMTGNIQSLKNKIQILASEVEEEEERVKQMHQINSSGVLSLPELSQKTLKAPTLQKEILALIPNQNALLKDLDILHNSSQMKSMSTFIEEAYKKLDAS
UniProt O14519: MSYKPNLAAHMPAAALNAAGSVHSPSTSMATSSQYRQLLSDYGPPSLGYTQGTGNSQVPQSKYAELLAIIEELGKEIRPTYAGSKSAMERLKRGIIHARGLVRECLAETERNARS
UniProt Q00535, whole entry, looked up: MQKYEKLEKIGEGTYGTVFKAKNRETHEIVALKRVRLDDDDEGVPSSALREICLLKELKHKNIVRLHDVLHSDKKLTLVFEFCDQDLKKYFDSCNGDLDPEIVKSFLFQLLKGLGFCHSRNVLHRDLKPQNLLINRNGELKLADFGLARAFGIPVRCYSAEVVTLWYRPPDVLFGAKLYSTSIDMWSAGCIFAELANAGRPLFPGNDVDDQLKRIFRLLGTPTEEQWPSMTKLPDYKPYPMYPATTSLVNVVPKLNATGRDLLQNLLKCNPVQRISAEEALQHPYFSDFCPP
UniProt Q6ZU80: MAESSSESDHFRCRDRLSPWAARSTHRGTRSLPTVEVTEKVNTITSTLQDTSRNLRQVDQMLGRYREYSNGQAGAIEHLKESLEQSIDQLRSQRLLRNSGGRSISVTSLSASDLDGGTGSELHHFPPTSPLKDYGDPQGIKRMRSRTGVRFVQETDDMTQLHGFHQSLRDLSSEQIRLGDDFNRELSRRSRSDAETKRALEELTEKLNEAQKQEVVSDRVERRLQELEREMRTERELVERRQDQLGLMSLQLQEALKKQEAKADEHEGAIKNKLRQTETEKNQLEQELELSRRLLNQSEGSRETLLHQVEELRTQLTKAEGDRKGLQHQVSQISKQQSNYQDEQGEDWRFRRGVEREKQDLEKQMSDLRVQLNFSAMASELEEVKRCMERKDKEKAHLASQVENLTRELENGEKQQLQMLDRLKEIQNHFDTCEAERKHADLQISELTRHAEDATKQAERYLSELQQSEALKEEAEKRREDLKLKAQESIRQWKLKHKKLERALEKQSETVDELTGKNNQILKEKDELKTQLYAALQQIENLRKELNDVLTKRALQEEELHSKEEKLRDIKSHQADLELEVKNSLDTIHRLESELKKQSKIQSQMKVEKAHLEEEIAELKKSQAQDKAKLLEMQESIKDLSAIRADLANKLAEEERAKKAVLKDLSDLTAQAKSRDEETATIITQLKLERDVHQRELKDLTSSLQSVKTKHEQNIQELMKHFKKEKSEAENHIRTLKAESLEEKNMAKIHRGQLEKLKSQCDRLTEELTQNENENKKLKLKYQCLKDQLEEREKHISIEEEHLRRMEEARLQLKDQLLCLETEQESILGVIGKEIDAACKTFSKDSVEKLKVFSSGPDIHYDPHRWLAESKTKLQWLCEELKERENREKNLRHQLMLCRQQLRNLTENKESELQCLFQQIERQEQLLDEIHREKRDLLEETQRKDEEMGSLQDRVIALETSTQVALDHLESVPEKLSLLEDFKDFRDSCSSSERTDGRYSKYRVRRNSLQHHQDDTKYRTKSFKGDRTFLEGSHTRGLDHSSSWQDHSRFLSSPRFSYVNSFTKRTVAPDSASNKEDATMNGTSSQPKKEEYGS
UniProt Q9BYV8: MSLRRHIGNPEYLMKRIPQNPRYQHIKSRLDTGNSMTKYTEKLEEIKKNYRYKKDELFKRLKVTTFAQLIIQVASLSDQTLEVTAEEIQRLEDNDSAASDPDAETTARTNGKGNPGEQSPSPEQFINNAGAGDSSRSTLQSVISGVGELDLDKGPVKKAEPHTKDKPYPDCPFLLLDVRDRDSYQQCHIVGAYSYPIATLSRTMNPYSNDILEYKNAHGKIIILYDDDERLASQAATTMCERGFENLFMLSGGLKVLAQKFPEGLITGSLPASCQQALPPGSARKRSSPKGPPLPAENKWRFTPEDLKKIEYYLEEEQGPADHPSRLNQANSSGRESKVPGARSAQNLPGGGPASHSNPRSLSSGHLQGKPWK
UniProt Q8N4Q1: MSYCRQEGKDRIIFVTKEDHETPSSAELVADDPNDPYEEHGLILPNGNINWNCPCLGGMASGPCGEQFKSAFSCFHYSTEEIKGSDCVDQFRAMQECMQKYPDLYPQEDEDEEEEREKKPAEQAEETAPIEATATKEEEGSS
UniProt Q8TDI0: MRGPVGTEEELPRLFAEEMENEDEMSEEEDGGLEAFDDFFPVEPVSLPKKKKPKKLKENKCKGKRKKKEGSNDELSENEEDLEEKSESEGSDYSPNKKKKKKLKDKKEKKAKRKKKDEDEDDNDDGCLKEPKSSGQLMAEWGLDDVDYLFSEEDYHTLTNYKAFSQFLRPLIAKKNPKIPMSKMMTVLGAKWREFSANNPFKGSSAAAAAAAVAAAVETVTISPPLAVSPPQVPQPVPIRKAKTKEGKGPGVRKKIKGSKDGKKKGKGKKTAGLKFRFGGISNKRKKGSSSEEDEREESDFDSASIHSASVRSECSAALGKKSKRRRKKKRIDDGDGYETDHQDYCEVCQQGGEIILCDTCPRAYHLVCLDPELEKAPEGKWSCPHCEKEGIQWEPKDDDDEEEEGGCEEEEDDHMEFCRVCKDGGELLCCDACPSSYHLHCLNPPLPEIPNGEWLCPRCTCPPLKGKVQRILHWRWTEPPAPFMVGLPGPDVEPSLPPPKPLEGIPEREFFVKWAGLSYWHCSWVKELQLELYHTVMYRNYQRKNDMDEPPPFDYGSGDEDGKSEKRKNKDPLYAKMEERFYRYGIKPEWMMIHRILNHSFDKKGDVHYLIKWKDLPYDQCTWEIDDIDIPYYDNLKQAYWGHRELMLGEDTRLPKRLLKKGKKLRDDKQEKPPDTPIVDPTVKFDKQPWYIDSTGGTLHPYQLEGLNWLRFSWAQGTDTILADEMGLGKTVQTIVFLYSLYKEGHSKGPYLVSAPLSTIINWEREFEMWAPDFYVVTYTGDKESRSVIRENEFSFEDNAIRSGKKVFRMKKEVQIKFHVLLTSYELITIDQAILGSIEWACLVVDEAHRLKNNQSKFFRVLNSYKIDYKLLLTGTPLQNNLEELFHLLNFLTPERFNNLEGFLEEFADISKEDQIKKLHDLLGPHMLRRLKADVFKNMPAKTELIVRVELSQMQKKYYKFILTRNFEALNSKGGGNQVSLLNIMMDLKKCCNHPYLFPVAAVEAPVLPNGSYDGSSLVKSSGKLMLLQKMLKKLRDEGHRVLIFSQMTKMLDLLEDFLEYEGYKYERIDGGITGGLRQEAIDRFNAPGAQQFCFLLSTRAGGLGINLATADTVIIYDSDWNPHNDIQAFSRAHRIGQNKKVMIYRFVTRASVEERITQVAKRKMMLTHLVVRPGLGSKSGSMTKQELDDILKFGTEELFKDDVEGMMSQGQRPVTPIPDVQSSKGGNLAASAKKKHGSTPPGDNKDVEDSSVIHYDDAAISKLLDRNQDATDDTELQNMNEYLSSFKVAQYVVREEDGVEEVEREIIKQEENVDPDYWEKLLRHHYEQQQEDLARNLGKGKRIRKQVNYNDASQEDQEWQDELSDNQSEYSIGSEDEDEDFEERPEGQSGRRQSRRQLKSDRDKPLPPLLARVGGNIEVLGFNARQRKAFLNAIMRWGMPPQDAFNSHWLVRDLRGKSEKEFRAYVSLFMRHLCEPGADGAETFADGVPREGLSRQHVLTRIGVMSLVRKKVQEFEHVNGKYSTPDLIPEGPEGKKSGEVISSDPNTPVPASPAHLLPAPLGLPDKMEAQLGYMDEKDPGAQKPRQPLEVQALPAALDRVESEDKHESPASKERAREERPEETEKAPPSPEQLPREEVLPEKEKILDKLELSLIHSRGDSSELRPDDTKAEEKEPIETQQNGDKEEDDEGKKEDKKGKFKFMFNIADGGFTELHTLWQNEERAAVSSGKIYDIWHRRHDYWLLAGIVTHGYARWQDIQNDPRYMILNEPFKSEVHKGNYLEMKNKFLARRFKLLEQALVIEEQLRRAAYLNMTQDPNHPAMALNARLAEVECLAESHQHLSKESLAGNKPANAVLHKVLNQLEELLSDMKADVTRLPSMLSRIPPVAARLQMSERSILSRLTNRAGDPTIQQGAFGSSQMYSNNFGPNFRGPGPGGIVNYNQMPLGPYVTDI
UniProt Q5VXU3: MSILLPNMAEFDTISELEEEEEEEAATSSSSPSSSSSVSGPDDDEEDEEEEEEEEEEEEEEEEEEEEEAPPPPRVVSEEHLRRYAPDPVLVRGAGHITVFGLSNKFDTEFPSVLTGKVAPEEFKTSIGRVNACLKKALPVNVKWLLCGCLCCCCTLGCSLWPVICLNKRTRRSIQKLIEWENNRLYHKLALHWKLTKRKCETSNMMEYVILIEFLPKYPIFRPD
UniProt P49336: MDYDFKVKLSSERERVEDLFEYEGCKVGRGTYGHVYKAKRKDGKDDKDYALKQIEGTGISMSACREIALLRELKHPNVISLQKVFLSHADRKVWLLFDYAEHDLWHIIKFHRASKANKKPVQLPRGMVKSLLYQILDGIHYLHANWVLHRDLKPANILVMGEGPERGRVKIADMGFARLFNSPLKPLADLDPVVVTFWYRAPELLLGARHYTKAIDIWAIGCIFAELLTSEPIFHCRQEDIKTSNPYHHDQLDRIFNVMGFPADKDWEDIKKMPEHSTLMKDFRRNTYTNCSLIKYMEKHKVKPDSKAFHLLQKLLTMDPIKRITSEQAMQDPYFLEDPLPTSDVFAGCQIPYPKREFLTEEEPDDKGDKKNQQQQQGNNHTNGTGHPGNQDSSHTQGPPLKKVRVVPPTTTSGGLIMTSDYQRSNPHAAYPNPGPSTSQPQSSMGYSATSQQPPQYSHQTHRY
UniProt O14613: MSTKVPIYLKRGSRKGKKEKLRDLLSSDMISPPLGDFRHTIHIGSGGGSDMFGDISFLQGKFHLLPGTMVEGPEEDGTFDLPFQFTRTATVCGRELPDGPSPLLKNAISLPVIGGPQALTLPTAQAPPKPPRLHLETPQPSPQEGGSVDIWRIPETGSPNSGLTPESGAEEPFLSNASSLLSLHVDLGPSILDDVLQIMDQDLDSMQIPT
UniProt Q7Z7K6: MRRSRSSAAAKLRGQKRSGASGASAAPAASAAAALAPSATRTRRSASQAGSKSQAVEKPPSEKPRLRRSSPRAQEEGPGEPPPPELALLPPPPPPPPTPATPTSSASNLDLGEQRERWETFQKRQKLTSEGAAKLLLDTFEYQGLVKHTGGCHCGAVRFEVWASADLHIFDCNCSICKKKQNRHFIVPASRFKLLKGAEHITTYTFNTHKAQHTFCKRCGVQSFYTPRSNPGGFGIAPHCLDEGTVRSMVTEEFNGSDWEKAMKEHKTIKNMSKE

Assays:
Assay in all cases: log2 fold change, soluble protein after heating vs DMSO (PISA); higher = thermal stabilisation; K562 cells, 10 uM, 30 min; active = over 0.2 and 3.5 SD of the protein, either way, in both replicates (recomputed)
[1] = compound: CS(=O)(=O)c1ccc(-c2cnc(N)c(C(=O)Nc3ccccc3)n2)cc1
How it was run: (§1)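 Thermal stability values are relative to control samples and come from duplicates. They are expressed as log2 fold changes. For measurement, K562 cells (2×10^6 cells/mL) received 10 μM compound for 30 min, and aliquots were heated for 3 min over 48°C-58°C, pooled, and extracted at 4°C in PBS with 0.5% NP-40. Soluble protein, the supernatant after 21,000xg for 90 min, was quantified by TMTpro 16plex LC-MS/MS with equalised channel sums.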

crizotinib = compound: C[C@@H](Oc1cc(-c2cnn(C3CCNCC3)c2)cnc1N)c1c(Cl)ccc(F)c1Cl [crizotinib]
How it was run: as §1

[2] = compound: C[C@@H]1COCCN1C2=NC(=NC(=C2)C3(CC3)S(=O)(=O)C)C4=C5C=CNC5=CC=C4
How it was run: as §1

[3] = compound: C[C@H](C1=CC=C(C=C1)C(=O)NC2=C3C=CNC3=NC=C2)N
How it was run: as §1

tozasertib = compound: Cc1cc(Nc2cc(N3CCN(C)CC3)nc(Sc3ccc(NC(=O)C4CC4)cc3)n2)n[nH]1 [tozasertib]
How it was run: as §1

doramapimod = compound: Cc1ccc(-n2nc(C(C)(C)C)cc2NC(=O)Nc2ccc(OCCN3CCOCC3)c3ccccc23)cc1 [doramapimod]
How it was run: as §1

ispinesib = compound: Cc1ccc(C(=O)N(CCCN)[C@@H](c2nc3cc(Cl)ccc3c(=O)n2Cc2ccccc2)C(C)C)cc1 [ispinesib]
How it was run: as §1

bafetinib = compound: Cc1ccc(NC(=O)c2ccc(CN3CC[C@H](N(C)C)C3)c(C(F)(F)F)c2)cc1Nc1nccc(-c2cncnc2)n1 [bafetinib]
How it was run: as §1

[4] = compound: Cn1cc(-c2ccc3c(c2)CCN3C(=O)Cc2cccc(C(F)(F)F)c2)c2c(N)ncnc21
How it was run: as §1

[5] = compound: Cn1cc(-c2ccc3nnc(C(F)(F)c4ccc5ncccc5c4)n3n2)cn1
How it was run: as §1

tipifarnib = compound: Cn1cncc1[C@@](N)(c1ccc(Cl)cc1)c1ccc2c(c1)c(-c1cccc(Cl)c1)cc(=O)n2C [tipifarnib]
How it was run: as §1

mubritinib = compound: FC(F)(F)c1ccc(/C=C/c2nc(COc3ccc(CCCCn4ccnn4)cc3)co2)cc1 [mubritinib]
How it was run: as §1

nilotinib = compound: Cc1cn(-c2cc(NC(=O)c3ccc(C)c(Nc4nccc(-c5cccnc5)n4)c3)cc(C(F)(F)F)c2)cn1 [nilotinib]
How it was run: as §1

[6] = compound: Cc1nc(Nc2n[nH]c3c2CN(C(=O)N[C@H](CN(C)C)c2ccccc2)C3(C)C)c2sccc2n1
How it was run: as §1

[7] = compound: Cc1ncc(-c2ccnc(Nc3ccc(S(C)(=O)=O)cc3)n2)n1C(C)C
How it was run: as §1

duvelisib = compound: C[C@H](Nc1ncnc2nc[nH]c12)c1cc2cccc(Cl)c2c(=O)n1-c1ccccc1 [duvelisib]
How it was run: as §1

[8] = compound: Cc1cc(SCc2sc(-c3ccc(C(F)(F)F)cc3)nc2C)ccc1OCC(=O)O
How it was run: as §1

dasatinib = compound: Cc1nc(Nc2ncc(C(=O)Nc3c(C)cccc3Cl)s2)cc(N2CCN(CCO)CC2)n1 [dasatinib]
How it was run: as §1

gandotinib = compound: Cc1cc(Nc2cc(CN3CCOCC3)c3nc(C)c(Cc4ccc(Cl)cc4F)n3n2)n[nH]1 [gandotinib]
How it was run: as §1

[9] = compound: Cc1cccc(CC(=O)N2CCc3c2ccc(-c2cn(C)c4ncnc(N)c24)c3F)n1
How it was run: as §1

Target	log2 fold change [1]	log2 fold change (crizotinib)	log2 fold change [2]	log2 fold change [3]	log2 fold change (tozasertib)	log2 fold change (doramapimod)	log2 fold change (ispinesib)	log2 fold change (bafetinib)	log2 fold change [4]	log2 fold change [5]	log2 fold change (tipifarnib)	log2 fold change (mubritinib)	log2 fold change (nilotinib)	log2 fold change [6]	log2 fold change [7]	log2 fold change (duvelisib)	log2 fold change [8]	log2 fold change (dasatinib)	log2 fold change (gandotinib)	log2 fold change [9]
CEP120 (UniProt Q8N960)	inactive: -0.119	inactive: -0.058	inactive: 0.037	inactive: 0.159	inactive: -0.24	inactive: 0.163	inactive: -0.16	inactive: -0.092	inactive: 0.12	inactive: -0.149	inactive: 0.096	inactive: 0.048	–	–	–	–	–	–	–	–
CDC42SE2 (UniProt Q9NRR3)	inactive: 0.049	–	inactive: 0.052	inactive: -0.27	inactive: -0.023	–	–	inactive: 0.216	inactive: 0.003	–	inactive: -0.021	inactive: 0.027	inactive: 0.079	inactive: 0.008	inactive: 0.03	–	–	–	–	–
CHCHD5 (UniProt Q9BSY4)	inactive: -0.082	inactive: -0.084	–	inactive: 0.093	–	inactive: 0.145	inactive: 0.172	inactive: -0.173	inactive: 0.074	inactive: 0.153	inactive: 0.278	inactive: -0.039	inactive: 0.141	inactive: -0.186	inactive: -0.011	–	–	–	–	–
CENPQ (UniProt Q7L2Z9)	inactive: -0.025	–	inactive: 0.149	inactive: 0.155	inactive: -0.025	–	–	–	inactive: -0.117	–	–	inactive: -0.074	inactive: -0.074	inactive: -0.026	inactive: 0.128	inactive: 0.159	inactive: -0.083	inactive: 0.001	–	–
CDK2AP1 (UniProt O14519)	inactive: -0.058	–	inactive: 0.153	–	–	–	inactive: 0.104	inactive: 0.112	–	inactive: 0.065	inactive: 0.029	inactive: 0.032	inactive: 0.071	inactive: -0.028	inactive: -0.085	–	–	–	inactive: -0.111	inactive: 0.031
CDK5 (UniProt Q00535)	inactive: 0.019	inactive: -0.076	inactive: 0.037	inactive: -0.022	–	inactive: 0.088	inactive: -0.033	inactive: -0.091	inactive: -0.033	inactive: -0.031	inactive: -0.054	inactive: -0.103	inactive: -0.055	inactive: -0.142	inactive: -0.034	–	inactive: 0.008	inactive: -0.078	inactive: -0.003	inactive: 0.035
CEP128 (UniProt Q6ZU80)	inactive: 0.093	inactive: 0.056	–	inactive: 0.157	–	inactive: 0.102	–	inactive: -0.186	inactive: -0.026	–	inactive: -0.016	inactive: 0.143	–	–	–	–	inactive: -0.07	inactive: 0.046	–	–
CEP41 (UniProt Q9BYV8)	inactive: 0.129	inactive: -0.265	–	–	–	inactive: 0.136	–	–	–	–	–	–	–	–	–	–	–	–	–	–
CENPJ (UniProt Q9HC77)	inactive: -0.03	inactive: 0.033	inactive: 0.025	–	inactive: -0.132	inactive: 0.275	inactive: -0.088	–	–	inactive: 0.061	inactive: 0.186	–	–	–	–	–	–	–	–	–
CHD3 isoform 3 (UniProt Q12873)	inactive: -0.036	inactive: -0.128	inactive: 0.068	inactive: 0.079	–	inactive: 0.026	inactive: -0.193	inactive: 0.01	inactive: -0.06	inactive: 0.063	inactive: -0.089	inactive: -0.058	inactive: -0.093	inactive: -0.274	inactive: -0.172	–	inactive: 0.14	inactive: -0.086	inactive: 0.237	inactive: 0.004
CHCHD4 isoform 2 (UniProt Q8N4Q1)	inactive: -0.041	inactive: 0.017	inactive: 0.156	inactive: -0.272	–	inactive: 0.069	inactive: -0.074	inactive: 0	inactive: -0.185	inactive: -0.059	inactive: -0.208	inactive: 0	inactive: -0.054	inactive: -0.015	inactive: -0.039	–	inactive: 0.022	inactive: -0.121	inactive: -0.079	active: 0.764
CHD5 (UniProt Q8TDI0)	inactive: -0.126	–	inactive: 0.106	inactive: 0.017	inactive: 0.228	–	inactive: -0.108	inactive: -0.076	inactive: -0.033	inactive: -0.012	inactive: 0.06	inactive: 0.045	inactive: -0.096	inactive: -0.053	inactive: -0.063	inactive: -0.013	inactive: 0.152	inactive: -0.237	inactive: 0.091	inactive: -0.013
CHIC1 (UniProt Q5VXU3)	inactive: 0.014	–	inactive: -0.208	–	inactive: -0.131	–	inactive: -0.172	inactive: 0.038	–	inactive: 0.166	inactive: -0.108	inactive: 0.083	inactive: -0.161	inactive: -0.054	inactive: 0.001	inactive: 0.188	inactive: -0.042	inactive: 0.019	inactive: 0.121	inactive: 0.071
CDK8 (UniProt P49336)	inactive: -0.049	inactive: -0.029	inactive: 0.033	inactive: 0.248	–	active: 0.425	inactive: 0.031	inactive: 0.109	inactive: 0.057	inactive: 0.018	inactive: 0	inactive: 0.01	–	–	–	–	inactive: 0.155	inactive: 0.067	inactive: -0.13	inactive: 0.014
CHCHD1 (UniProt Q96BP2)	inactive: -0.115	active: -0.54	inactive: -0.203	inactive: -0.067	–	inactive: -0.087	inactive: 0.06	inactive: -0.084	inactive: -0.153	inactive: 0.105	inactive: 0.077	inactive: 0.104	inactive: -0.007	inactive: 0.02	inactive: -0.031	–	inactive: 0.036	inactive: -0.057	inactive: -0.085	inactive: 0.081
CDC42EP2 (UniProt O14613)	inactive: -0.153	–	inactive: -0.141	–	inactive: -0.2	–	–	inactive: -0.001	–	–	–	–	–	–	–	–	–	–	–	–
CENPE (UniProt Q02224)	inactive: 0.231	inactive: -0.018	–	inactive: -0.908	–	inactive: 0.108	inactive: -0.321	inactive: 0.143	inactive: 0.14	inactive: -0.123	inactive: -0.033	–	–	–	–	–	inactive: 0.24	inactive: -0.35	inactive: 0.052	inactive: 0.069
CENPV (UniProt Q7Z7K6)	inactive: -0.118	–	inactive: -0.337	inactive: 0.317	–	–	inactive: -0.409	–	inactive: -0.118	inactive: -0.24	inactive: 0.114	–	–	–	–	–	–	–	inactive: 0.115	inactive: -0.044

2 records picked at random from those above, as already listed:
Target	log2 fold change [1]	log2 fold change (crizotinib)	log2 fold change [2]	log2 fold change [3]	log2 fold change (tozasertib)	log2 fold change (doramapimod)	log2 fold change (ispinesib)	log2 fold change (bafetinib)	log2 fold change [4]	log2 fold change [5]	log2 fold change (tipifarnib)	log2 fold change (mubritinib)	log2 fold change (nilotinib)	log2 fold change [6]	log2 fold change [7]	log2 fold change (duvelisib)	log2 fold change [8]	log2 fold change (dasatinib)	log2 fold change (gandotinib)	log2 fold change [9]
CDK8 (UniProt P49336)	inactive: -0.049	inactive: -0.029	inactive: 0.033	inactive: 0.248	–	active: 0.425	inactive: 0.031	inactive: 0.109	inactive: 0.057	inactive: 0.018	inactive: 0	inactive: 0.01	–	–	–	–	inactive: 0.155	inactive: 0.067	inactive: -0.13	inactive: 0.014
CHCHD5 (UniProt Q9BSY4)	inactive: -0.082	inactive: -0.084	–	inactive: 0.093	–	inactive: 0.145	inactive: 0.172	inactive: -0.173	inactive: 0.074	inactive: 0.153	inactive: 0.278	inactive: -0.039	inactive: 0.141	inactive: -0.186	inactive: -0.011	–	–	–	–	–
